Measured values from publication PMC12554172, “Systematic analysis of the RGS2 degron reveals characteristics of substrate recognition by the F-box protein FBXO44” (The Journal of Biological Chemistry, 2025).
These are yes or no findings as the source states them, for the method shown. Some results given as binding are weak or reduced against the parent protein; the word gives no strength. Where a sequence is shown, tags or fusion partners need not be part of it.

By UniProt entry, the sequences of proteins in these tests, tags left out. Where a name states a change or a piece, a line headed by the entry shows the natural chain unless it says otherwise.
UniProt P41220: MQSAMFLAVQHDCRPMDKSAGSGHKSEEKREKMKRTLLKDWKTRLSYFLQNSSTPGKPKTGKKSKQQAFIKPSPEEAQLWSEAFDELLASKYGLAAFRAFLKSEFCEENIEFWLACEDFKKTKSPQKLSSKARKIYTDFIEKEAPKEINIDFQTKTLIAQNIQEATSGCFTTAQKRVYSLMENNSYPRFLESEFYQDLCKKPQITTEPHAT

Legend:
RGS2^5–16 peptide R14W = molecular target: T1, RGS2^5–16 peptide R14W (UniProt P41220); assay: peptide or protein array; custom PEPperPRINT peptide microarray (each position of RGS2^5–16 substituted by every other amino acid; C-terminal truncations); 2 μg/ml purified FLAG-FBXO44^FBA in staining buffer (PBS, 0.005% Tween, pH 7.4, 10% Rockland blocking buffer) overnight at 4 °C; anti-FLAG DyLight800; signal normalised to the original residue; both purified
T1 sequence (peptide): MFLAVQHDCWPM

[1] = molecular target: T2, RGS2^5–16 peptide, Leu^7 to Asp (UniProt P41220); assay: as above
T2 sequence (peptide): MFDAVQHDCRPM

[2] = molecular target: T3, RGS2^5–16 peptide, Asp^12 to Ala (UniProt P41220); assay: as above
T3 sequence (peptide): MFLAVQHACRPM

[3] = molecular target: T4, RGS2^5–16 peptide, Asp^12 to Phe (UniProt P41220); assay: as above
T4 sequence (peptide): MFLAVQHFCRPM

[4] = molecular target: T5, RGS2^5–16 peptide, Asp^12 to Lys (UniProt P41220); assay: as above
T5 sequence (peptide): MFLAVQHKCRPM

RGS2^5–16 peptide P15G = molecular target: T6, RGS2^5–16 peptide P15G (UniProt P41220); assay: as above
T6 sequence (peptide): MFLAVQHDCRGM

[5] = molecular target: T7, RGS2^5–16 peptide, Pro^15 to Ala (UniProt P41220); assay: as above
T7 sequence (peptide): MFLAVQHDCRAM

RGS2^5–16 peptide R14A = molecular target: T8, RGS2^5–16 peptide R14A (UniProt P41220); assay: as above
T8 sequence (peptide): MFLAVQHDCAPM

[6] = molecular target: T9, RGS2^5–16 peptide, Asp^12 to Met (UniProt P41220); assay: as above
T9 sequence (peptide): MFLAVQHMCRPM

[7] = molecular target: T10, RGS2^5–16 peptide, Phe^6 to Asp (UniProt P41220); assay: as above
T10 sequence (peptide): MDLAVQHDCRPM

RGS2^5–16 peptide P15R = molecular target: T11, RGS2^5–16 peptide P15R (UniProt P41220); assay: as above
T11 sequence (peptide): MFLAVQHDCRRM

[8] = molecular target: T12, RGS2^5–16 peptide, Asp^12 to Asn (UniProt P41220); assay: as above
T12 sequence (peptide): MFLAVQHNCRPM

RGS4^1–11 peptide = molecular target: T13, RGS4^1–11 peptide; assay: far-Western, overlay or dot blot; dot blot: peptides in PBS spotted at increasing amounts on PVDF and air-dried; 2 μg/ml purified FLAG-FBXO44^FBA in blocking buffer overnight at 4 °C; detected with anti-FLAG; both purified
T13 sequence (peptide): MCKGLAALPAT

B1: FLAG-tagged FBXO44 FBA domain (FBXO44^FBA) (domain or fragment, UniProt Q9H4M3-1 71-252)
chain: FYFLRSLHRNLLHNPCAEEGFEFWSLDVNGGDEWKVEDLSRDQRKEFPNDQVKKYFVTSYYTCLKSQVVDLKAEGYWEELMDTTRPDIEVKDWFAARPDCGSKYQLCVQLLSSAHAPLGTFQPDPATIQQKSDAKWREVSHTFSNYPPGVRYIWFQHGGVDTHYWAGWYGPRVTNSSITIGP
Question: B1 was tested. Which binding (RGS2^5–16 peptide R14W) did it give?
Answer: binds

Question: And the binding [1]?
Answer: binds

Question: What about the binding [2] of the same binder?
Answer: binds

Question: What about the binding [3] of the same binder?
Answer: binds

Question: What about the binding [4] of the same binder?
Answer: binds

Question: And the binding (RGS2^5–16 peptide P15G)?
Answer: binds

Question: What about the binding [5] of the same binder?
Answer: binds

Question: And the binding (RGS2^5–16 peptide R14A)?
Answer: binds

Question: What about the binding [6] of the same binder?
Answer: binds

Question: And the binding [7]?
Answer: binds

Question: And the binding (RGS2^5–16 peptide P15R)?
Answer: binds

Question: And the binding [8]?
Answer: binds

Question: What about the binding (RGS4^1–11 peptide) of the same binder?
Answer: no binding (tested: 2 μg/ml FLAG-FBXO44^FBA)
